In the supplement of paper PMC12067093, “Discovery and optimisation of a covalent ligand for TRIM25 and its application to targeted protein ubiquitination” (Chemical Science, 2025):
The list shows a part of the results.

Protein sequences, listed by entry. Tags and fused reporters are not part of them. Lines headed by an entry give the natural chain unless they say otherwise; changes in a name come on top.
UniProt Q99614: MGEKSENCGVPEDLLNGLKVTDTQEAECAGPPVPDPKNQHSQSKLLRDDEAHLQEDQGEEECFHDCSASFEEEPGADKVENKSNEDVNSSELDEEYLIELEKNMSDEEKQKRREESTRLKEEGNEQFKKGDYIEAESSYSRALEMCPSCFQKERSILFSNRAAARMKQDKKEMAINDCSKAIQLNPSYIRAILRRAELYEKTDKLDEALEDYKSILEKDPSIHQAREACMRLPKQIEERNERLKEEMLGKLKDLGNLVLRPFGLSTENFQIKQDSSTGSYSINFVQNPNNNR
UniProt Q5TAX3: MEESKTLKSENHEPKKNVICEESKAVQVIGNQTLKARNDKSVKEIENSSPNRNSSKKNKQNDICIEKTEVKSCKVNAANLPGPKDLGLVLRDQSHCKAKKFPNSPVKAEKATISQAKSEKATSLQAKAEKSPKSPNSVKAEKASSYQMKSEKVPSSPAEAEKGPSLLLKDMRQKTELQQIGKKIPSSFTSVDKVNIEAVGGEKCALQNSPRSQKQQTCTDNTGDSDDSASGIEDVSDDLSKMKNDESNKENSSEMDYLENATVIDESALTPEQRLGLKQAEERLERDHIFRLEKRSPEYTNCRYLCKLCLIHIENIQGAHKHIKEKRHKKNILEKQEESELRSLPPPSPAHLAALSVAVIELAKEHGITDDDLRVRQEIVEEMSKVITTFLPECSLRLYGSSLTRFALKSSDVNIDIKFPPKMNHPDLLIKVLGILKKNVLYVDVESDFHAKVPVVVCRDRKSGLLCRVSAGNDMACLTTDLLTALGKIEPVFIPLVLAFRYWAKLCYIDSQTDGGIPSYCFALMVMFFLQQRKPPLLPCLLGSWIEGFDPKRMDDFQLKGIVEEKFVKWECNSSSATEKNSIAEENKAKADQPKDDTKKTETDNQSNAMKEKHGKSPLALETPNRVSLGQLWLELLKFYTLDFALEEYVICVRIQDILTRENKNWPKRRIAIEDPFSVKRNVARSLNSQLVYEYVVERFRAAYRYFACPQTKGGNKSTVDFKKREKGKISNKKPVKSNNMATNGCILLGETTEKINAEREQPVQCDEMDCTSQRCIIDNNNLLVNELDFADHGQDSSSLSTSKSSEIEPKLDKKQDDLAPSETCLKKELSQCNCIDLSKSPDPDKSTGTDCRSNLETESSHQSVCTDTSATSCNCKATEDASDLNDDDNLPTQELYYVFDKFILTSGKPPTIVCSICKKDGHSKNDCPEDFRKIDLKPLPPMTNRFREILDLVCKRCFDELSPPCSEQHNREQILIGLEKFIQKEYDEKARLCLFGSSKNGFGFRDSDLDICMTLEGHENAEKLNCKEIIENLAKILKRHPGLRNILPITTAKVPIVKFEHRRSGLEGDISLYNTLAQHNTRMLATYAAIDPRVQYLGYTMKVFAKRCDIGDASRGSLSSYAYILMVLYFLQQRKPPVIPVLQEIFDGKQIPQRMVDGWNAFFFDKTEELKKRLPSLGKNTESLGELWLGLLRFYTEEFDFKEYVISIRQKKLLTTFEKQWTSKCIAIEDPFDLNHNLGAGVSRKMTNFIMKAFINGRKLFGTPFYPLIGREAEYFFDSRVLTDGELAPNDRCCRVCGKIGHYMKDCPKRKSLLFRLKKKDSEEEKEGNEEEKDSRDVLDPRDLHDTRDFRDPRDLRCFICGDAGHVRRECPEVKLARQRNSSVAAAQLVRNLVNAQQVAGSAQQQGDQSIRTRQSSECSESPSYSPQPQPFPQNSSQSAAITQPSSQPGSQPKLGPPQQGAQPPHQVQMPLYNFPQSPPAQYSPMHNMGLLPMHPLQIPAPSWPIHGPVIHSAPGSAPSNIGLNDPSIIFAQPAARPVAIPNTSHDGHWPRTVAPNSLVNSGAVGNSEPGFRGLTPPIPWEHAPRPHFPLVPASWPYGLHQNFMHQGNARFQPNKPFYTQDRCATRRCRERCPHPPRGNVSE
UniProt Q8IZ69: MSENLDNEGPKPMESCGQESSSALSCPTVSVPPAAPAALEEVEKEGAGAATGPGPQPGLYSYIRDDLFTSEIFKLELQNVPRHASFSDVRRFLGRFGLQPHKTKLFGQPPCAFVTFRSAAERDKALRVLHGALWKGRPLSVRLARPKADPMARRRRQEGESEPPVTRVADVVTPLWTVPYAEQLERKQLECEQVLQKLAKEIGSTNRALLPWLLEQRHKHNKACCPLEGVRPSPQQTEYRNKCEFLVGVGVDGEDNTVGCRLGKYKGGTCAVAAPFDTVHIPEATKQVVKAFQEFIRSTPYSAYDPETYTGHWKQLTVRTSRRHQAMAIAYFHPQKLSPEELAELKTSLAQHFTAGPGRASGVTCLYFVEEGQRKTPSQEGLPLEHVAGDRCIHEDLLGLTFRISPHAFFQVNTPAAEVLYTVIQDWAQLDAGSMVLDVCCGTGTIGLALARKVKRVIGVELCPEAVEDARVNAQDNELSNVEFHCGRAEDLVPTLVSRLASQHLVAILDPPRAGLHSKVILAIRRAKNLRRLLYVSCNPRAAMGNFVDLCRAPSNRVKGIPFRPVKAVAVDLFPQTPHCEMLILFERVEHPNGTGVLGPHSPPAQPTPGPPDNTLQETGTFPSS
UniProt Q86VY4: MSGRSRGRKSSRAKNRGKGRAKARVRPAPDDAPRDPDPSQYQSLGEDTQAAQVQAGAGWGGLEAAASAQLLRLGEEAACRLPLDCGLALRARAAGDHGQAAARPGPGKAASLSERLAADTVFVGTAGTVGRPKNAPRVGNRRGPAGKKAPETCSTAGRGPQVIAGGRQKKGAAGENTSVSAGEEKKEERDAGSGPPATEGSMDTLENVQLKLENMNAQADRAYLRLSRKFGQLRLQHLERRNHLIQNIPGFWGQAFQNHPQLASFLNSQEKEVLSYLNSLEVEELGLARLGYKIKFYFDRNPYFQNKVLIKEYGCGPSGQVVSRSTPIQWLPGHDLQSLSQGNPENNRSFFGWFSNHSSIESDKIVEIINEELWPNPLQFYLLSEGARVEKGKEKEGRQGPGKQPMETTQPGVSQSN
UniProt P33981: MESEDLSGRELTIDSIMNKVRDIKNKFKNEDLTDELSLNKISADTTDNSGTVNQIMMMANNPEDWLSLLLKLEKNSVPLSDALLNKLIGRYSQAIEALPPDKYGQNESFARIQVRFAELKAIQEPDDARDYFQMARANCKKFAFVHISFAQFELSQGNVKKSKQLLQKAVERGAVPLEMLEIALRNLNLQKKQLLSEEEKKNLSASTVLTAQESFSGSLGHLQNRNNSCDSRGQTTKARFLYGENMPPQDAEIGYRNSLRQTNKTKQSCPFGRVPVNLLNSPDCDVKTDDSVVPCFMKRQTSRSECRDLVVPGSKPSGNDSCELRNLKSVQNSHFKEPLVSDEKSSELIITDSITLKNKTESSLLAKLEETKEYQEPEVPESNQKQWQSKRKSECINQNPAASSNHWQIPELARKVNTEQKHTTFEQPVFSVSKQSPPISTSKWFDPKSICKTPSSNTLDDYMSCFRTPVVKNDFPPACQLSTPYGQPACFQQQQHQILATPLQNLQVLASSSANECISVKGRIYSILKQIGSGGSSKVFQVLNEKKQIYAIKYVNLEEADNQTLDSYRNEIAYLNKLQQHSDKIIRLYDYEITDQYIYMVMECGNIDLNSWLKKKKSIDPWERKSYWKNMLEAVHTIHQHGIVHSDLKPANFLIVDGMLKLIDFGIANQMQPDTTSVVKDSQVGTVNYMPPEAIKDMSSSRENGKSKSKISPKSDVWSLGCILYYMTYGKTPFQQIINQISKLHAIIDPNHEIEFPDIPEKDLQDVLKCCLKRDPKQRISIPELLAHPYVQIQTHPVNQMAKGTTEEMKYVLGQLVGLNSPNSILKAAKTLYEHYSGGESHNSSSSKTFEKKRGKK
UniProt Q6NXR4: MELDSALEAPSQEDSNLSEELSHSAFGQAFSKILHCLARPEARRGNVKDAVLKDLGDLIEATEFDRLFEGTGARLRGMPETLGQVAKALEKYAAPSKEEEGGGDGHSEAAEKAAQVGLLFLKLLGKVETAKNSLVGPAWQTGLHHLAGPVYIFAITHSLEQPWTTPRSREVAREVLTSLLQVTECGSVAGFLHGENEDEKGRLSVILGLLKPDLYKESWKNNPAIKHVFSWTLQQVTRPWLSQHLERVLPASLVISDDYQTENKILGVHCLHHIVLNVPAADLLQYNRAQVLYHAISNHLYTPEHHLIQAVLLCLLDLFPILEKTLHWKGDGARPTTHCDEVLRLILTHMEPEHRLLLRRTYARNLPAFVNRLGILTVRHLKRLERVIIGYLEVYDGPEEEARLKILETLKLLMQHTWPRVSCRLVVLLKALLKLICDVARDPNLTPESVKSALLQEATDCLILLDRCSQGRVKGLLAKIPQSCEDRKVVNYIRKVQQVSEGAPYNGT
UniProt Q13630: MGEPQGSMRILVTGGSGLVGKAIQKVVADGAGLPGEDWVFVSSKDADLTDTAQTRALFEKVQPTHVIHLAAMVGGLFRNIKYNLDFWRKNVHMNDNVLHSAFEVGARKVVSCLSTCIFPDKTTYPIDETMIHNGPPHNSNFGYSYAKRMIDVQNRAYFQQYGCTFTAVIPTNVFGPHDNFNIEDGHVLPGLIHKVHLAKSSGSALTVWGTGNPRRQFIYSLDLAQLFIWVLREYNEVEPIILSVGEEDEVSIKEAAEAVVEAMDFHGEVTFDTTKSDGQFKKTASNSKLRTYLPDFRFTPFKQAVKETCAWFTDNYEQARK
UniProt Q9BSJ2, whole entry, looked up: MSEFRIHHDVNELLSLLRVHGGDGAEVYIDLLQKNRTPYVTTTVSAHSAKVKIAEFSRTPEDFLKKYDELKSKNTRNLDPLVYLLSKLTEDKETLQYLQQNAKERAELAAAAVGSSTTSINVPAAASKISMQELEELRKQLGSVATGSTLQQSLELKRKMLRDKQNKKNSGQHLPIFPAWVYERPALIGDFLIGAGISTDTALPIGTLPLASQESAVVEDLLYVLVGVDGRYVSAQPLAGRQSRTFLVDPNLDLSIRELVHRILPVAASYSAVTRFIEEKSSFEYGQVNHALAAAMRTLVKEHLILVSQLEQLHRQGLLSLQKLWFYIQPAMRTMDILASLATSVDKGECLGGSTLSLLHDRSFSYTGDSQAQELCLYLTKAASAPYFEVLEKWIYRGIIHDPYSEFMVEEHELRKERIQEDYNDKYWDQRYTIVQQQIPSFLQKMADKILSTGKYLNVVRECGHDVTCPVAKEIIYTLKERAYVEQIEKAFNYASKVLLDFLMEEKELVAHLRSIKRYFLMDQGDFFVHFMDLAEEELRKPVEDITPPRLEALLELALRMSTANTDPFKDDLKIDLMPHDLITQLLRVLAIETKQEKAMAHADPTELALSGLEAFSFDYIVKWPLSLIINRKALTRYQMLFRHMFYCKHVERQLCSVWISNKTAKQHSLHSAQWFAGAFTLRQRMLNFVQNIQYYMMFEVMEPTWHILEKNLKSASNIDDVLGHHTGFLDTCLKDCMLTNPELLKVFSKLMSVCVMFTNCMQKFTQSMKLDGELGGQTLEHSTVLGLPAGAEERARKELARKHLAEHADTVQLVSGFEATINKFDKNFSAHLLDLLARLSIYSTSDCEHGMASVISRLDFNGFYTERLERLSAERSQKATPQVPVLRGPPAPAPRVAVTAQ
UniProt Q6PKC3: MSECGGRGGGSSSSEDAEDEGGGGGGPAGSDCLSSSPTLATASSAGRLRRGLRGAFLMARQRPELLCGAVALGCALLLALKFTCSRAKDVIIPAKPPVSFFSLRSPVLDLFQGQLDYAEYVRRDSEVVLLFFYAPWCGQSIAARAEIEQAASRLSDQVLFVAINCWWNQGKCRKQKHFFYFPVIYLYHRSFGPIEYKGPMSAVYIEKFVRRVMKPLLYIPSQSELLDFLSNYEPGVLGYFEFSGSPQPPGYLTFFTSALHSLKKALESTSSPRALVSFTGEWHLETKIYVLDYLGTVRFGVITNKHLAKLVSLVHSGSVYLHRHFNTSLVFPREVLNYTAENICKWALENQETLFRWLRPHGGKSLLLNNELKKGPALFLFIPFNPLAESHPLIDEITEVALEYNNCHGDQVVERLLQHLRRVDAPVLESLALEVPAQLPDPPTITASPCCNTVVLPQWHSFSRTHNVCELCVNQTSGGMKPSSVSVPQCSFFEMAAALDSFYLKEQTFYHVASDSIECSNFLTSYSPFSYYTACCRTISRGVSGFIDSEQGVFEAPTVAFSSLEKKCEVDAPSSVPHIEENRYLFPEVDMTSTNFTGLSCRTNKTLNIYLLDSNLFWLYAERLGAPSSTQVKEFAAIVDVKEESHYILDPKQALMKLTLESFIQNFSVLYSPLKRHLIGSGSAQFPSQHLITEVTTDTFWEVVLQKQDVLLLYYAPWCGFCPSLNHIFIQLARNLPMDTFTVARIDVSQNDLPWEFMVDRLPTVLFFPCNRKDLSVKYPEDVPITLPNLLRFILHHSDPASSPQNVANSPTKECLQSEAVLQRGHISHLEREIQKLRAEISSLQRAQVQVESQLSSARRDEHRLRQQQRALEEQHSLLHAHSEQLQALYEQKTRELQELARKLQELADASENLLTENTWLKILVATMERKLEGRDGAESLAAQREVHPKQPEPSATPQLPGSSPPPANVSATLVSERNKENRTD

Compound: CC1Cc2ccccc2N1C(=O)C1CCCN(C1)C(=O)CCl (mixture of isomers) [TRIM25 ligand 11 (diastereomer mixture)]
Assay: probe-labelled cysteine peptide fold change vs DMSO (competition) (log2 fold change); higher = less target engagement (more negative = stronger competition)
Conditions: THP-1, incubation time: 4 h
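Note: competitive chemoproteomic profiling in live THP-1 cells with an iodoacetamide desthiobiotin (IA-DTB) probe, comparing probe-labelled peptide intensities in compound-treated cells against DMSO-treated controls.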

Row | Target | probe-labelled cysteine peptide fold change (10 µM) | probe-labelled cysteine peptide fold change (50 µM)
1 | TTC1_Q99614_178_EMAINDCSK (UniProt Q99614) | -0.137 | 0.0317
2 | TST_Q16762_64_HVPGASFFDIEECRDTASPYEMMLPSEAGFAEYVGR (UniProt Q16762) | 0.0284 | -0.153
3 | TUT4_Q5TAX3_204_CALQNSPR (UniProt Q5TAX3) | -0.309 | -0.492
4 | TTF2_Q9UNY4_785_CSPFDEFNLWR (UniProt Q9UNY4) | 0.0364 | 0.132
5 | TSSC4_Q9Y5U2_99_SRDIFDCLEGAAR (UniProt Q9Y5U2) | -0.397 | -0.414
6 | TXNDC5_Q8NBS9_121+128_VDCTAHSDVCSAQGVR (UniProt Q8NBS9) | -0.00753 | -0.27
7 | TRPM2_O94759_693_AIGVFTECYR (UniProt O94759) | 0.0381 | 0.0798
8 | TSC2_P49815_1687_GQFNFVHVIVTPLDYECNLVSLQCR (UniProt P49815) | -0.0731 | -0.000588
9 | TRMT2A_Q8IZ69_538_RLLYVSCNPR (UniProt Q8IZ69) | 0.0907 | 0.183
10 | TUBGCP3_Q96CW5_388_TLAALVDHCQGR (UniProt Q96CW5) | 0.0685 | 0.153
11 | TTYH3_Q9C0H2_486_CENTPLIGR (UniProt Q9C0H2) | -0.0936 | -0.00547
12 | TTLL12_Q14166_612_VMQPQILEVNFNPDCER (UniProt Q14166) | -0.045 | -0.126
13 | TSPYL5_Q86VY4_79_LGEEAACR (UniProt Q86VY4) | -0.196 | -0.262
14 | TTK_P33981_229_NNSCDSR (UniProt P33981) | 0.015 | 0.292
15 | TTC30B_Q8N4P2_619_DSVIQECVQFLEHCELHGR (UniProt Q8N4P2) | 0.056 | 0.655
16 | TTC21B_Q7Z4L5_937_LYLAQDDPDSCLR (UniProt Q7Z4L5) | 0.00849 | -0.051
17 | TTK_P33981_322_DLVVPGSKPSGNDSCELR (UniProt P33981) | -0.042 | -0.0632
18 | TRRAP_Q9Y4A5_420_NIDDESLPSSIQTMSCK (UniProt Q9Y4A5) | 0.299 | 0.0468
19 | TTC27_Q6P3X3_374_NNPVHTLTEVELLAFTSCLLSQPK (UniProt Q6P3X3) | 0.253 | 0.421
20 | TTI2_Q6NXR4_36_ILHCLARPEAR (UniProt Q6NXR4) | -0.0996 | -0.12
21 | TSTA3_Q13630_112_VVSCLSTCIFPDK (UniProt Q13630) | -0.022 | 0.0145
22 | TTC27_Q6P3X3_743_CDTQSNCWEK (UniProt Q6P3X3) | -0.0917 | 0.0553

Row | Target | probe-labelled cysteine peptide fold change (10 µM) | probe-labelled cysteine peptide fold change (50 µM)
23 | TUBGCP5_Q96RT8_670_FAGGDVCVDR (UniProt Q96RT8) | 0.0805 | -0.0117
24 | TUBB6_Q9BUF5_127_KECEHCDCLQGFQLTHSLGGGTGSGMGTLLISK (UniProt Q9BUF5) | -0.175 | -0.198
25 | TTC37_Q6PGP7_352_NLCLHLK (UniProt Q6PGP7) | -0.00995 | 0.0287
26 | TTC13_Q8NBP0_505_DVLHQNFESYKPEVQELICVADR (UniProt Q8NBP0) | -0.0634 | -0.0296
27 | TTC7A_Q9ULT0_199_LTEREEEVITCFER (UniProt Q9ULT0) | 0.0523 | -0.0121
28 | TUBGCP3_Q96CW5_497_SINFLHQVCHDQTPTTK (UniProt Q96CW5) | 0.0964 | -0.0933
29 | TWF2_Q6IBS0_141_HLSSCAAPAPLTSAER (UniProt Q6IBS0) | 0.263 | -0.167
30 | TSFM_P43897_71_ALETCGGDLK (UniProt P43897) | -0.0386 | -0.00599
31 | TTC7A_Q9ULT0_623_GPEEALVTCR (UniProt Q9ULT0) | -0.00803 | 0.131
32 | TUBGCP2_Q9BSJ2_656_QLCSVWISNK (UniProt Q9BSJ2) | 0.2 | 0.174
33 | TRRAP_Q9Y4A5_3758_CFAQPNFK (UniProt Q9Y4A5) | 0.0512 | 0.0922
34 | TUBB6_Q9BUF5_12_MREIVHIQAGQCGNQIGTK (UniProt Q9BUF5) | -0.0592 | -0.175
35 | TSPAN2_O60636_164_ESSEQVQPTCPK (UniProt O60636) | 0.0227 | 0.197
36 | TSC2_P49815_1755_ICEEAAYSNPSLPLVHPPSHSK (UniProt P49815) | -0.214 | -0.281
37 | TXLNG_Q9NUQ3_101_NLVSPAYCTQESR (UniProt Q9NUQ3) | 0.0434 | -0.191
38 | TTC1_Q99614_28_VTDTQEAECAGPPVPDPK (UniProt Q99614) | -0.362 | -0.114
39 | TTC5_Q8N0Z6_304_KLQSMLGSLRPAHLGPCSDGHYQSASGQK (UniProt Q8N0Z6) | -0.103 | -0.145
40 | TRMT2A_Q8IZ69_538_LLYVSCNPR (UniProt Q8IZ69) | -0.0417 | 0.0586
41 | TTF2_Q9UNY4_50_ATDIPVSHCLLHEDFVVELQGLLLPQDK (UniProt Q9UNY4) | 0.0771 | 0.271
42 | TTC38_Q5R3I4_128_ACELWEQILQDHPTDMLALK (UniProt Q5R3I4) | -0.15 | -0.251
43 | TUBGCP2_Q9BSJ2_469_ECGHDVTCPVAK (UniProt Q9BSJ2) | -0.046 | -0.0198
44 | TRRAP_Q9Y4A5_3849_VNTLVAAANSLDNLCR (UniProt Q9Y4A5) | -0.0825 | -0.125

Row | Target | probe-labelled cysteine peptide fold change (10 µM) | probe-labelled cysteine peptide fold change (50 µM)
45 | TRRAP_Q9Y4A5_949_AIETALDCLK (UniProt Q9Y4A5) | 0.0616 | 0.000649
46 | TRRAP_Q9Y4A5_3085_CYLQLAGVMGK (UniProt Q9Y4A5) | -0.0598 | 0.194
47 | TSSC4_Q9Y5U2_99_DIFDCLEGAAR (UniProt Q9Y5U2) | -0.262 | -0.272
48 | TXNDC11_Q6PKC3_568_KCEVDAPSSVPHIEENR (UniProt Q6PKC3) | 0.11 | -0.0552
49 | TRPM4_Q8TD43_759_QSGRPGCCGGR (UniProt Q8TD43) | 0.16 | -0.0447
50 | TUT4_Q5TAX3_833_ELSQCNCIDLSK (UniProt Q5TAX3) | 0.0409 | -0.086
51 | TTI2_Q6NXR4_185_EVLTSLLQVTECGSVAGFLHGENEDEK (UniProt Q6NXR4) | 0.0182 | 0.114
52 | TSPYL5_Q86VY4_85_LPLDCGLALR (UniProt Q86VY4) | -0.216 | -0.243
53 | TTC39C_Q8N584_517_AVKDELCR (UniProt Q8N584) | -0.0987 | -0.126
54 | TRMT2A_Q8IZ69_270_GGTCAVAAPFDTVHIPEATK (UniProt Q8IZ69) | -0.145 | -0.0789
55 | TTC37_Q6PGP7_675_GLGECHLMMAK (UniProt Q6PGP7) | -0.00388 | -0.151
56 | TROVE2_P10155_102_QEPMLFALAICSQCSDISTK (UniProt P10155) | -0.347 | -0.116
57 | TUBA1B_P68363_347_RSIQFVDWCPTGFK (UniProt P68363) | -0.0614 | -0.0951
58 | TSTA3_Q13630_112_KVVSCLSTCIFPDK (UniProt Q13630) | -0.314 | -0.166
59 | TTC17_Q96AE7_412_EAQLGNHQICR (UniProt Q96AE7) | 0.153 | 0.254
60 | TTF2_Q9UNY4_754_VQTSIAVCK (UniProt Q9UNY4) | -0.0312 | -0.0186
61 | TXNDC17_Q9BRA2_64_HISEGCVFIYCQVGEK (UniProt Q9BRA2) | 0.0734 | 0.0424
62 | TSN_Q15631_225_ETAAACVEK (UniProt Q15631) | -0.0395 | -0.146
63 | TTK_P33981_295_TDDSVVPCFMK (UniProt P33981) | -0.0393 | -0.0452
64 | TTC4_O95801_160_GALCHLELK (UniProt O95801) | -0.118 | 0.0976
65 | TRMT2A_Q8IZ69_580_AVAVDLFPQTPHCEMLILFER (UniProt Q8IZ69) | 0.0397 | -0.0186
66 | TUBGCP2_Q9BSJ2_848_LSIYSTSDCEHGMASVISR (UniProt Q9BSJ2) | 0.0713 | -0.034

Row | Target | probe-labelled cysteine peptide fold change (10 µM) | probe-labelled cysteine peptide fold change (50 µM)
67 | TTI1_O43156_994_LQLAVLQGLGPLCER (UniProt O43156) | 0.132 | 0.1
68 | TTLL12_Q14166_418_WGEDNHWICK (UniProt Q14166) | 0.0917 | 0.0468
69 | TRMT6_Q9UJA5_243_AATACFGFPK (UniProt Q9UJA5) | -0.0779 | -0.123
70 | TUBB6_Q9BUF5_129_ECEHCDCLQGFQLTHSLGGGTGSGMGTLLISK (UniProt Q9BUF5) | 0.0297 | -0.0597
71 | TUT4_Q5TAX3_64_QNDICIEK (UniProt Q5TAX3) | 0.0237 | -0.225
72 | TTC27_Q6P3X3_514_ETPSLYCLLGDVLGDHSCYDK (UniProt Q6P3X3) | -0.201 | -0.392
73 | TTK_P33981_322_PSGNDSCELR (UniProt P33981) | -0.16 | -0.123
74 | TTC28_Q96AY4_274_TLGDQTGECR (UniProt Q96AY4) | 0.00414 | 0.121
75 | TUBA1C_Q9BQE3_376_AVCMLSNTTAVAEAWAR (UniProt Q9BQE3) | 0.00156 | -0.0426
76 | TTC37_Q6PGP7_1280_AALLSPGDPAIWAGLMAACHADDK (UniProt Q6PGP7) | -0.152 | 0.0021
77 | TST_Q16762_248_KVDLSQPLIATCR (UniProt Q16762) | -0.038 | 0.0402
78 | TUBA4A_P68366_54_TIGGGDDSFTTFFCETGAGK (UniProt P68366) | -0.0372 | -0.0118
79 | TTC39C_Q8N584_87_MQLACDDLK (UniProt Q8N584) | 0.0875 | -0.134
80 | TTC27_Q6P3X3_514_KETPSLYCLLGDVLGDHSCYDK (UniProt Q6P3X3) | -0.0969 | 0.0408
81 | TXNDC11_Q6PKC3_815_ECLQSEAVLQR (UniProt Q6PKC3) | -0.111 | -0.159
82 | TTC37_Q6PGP7_1422_AAEMCYR (UniProt Q6PGP7) | -0.0765 | 0.13
83 | TRMT2A_Q8IZ69_191_QLECEQVLQK (UniProt Q8IZ69) | -0.0804 | 0.0668
84 | TRPV2_Q9Y5S1_134_DGVNACILPLLQIDR (UniProt Q9Y5S1) | 0.0743 | -0.063
85 | TRUB1_Q8WWH5_269_ELSSCANVLELTR (UniProt Q8WWH5) | -0.109 | 0.14
